# Assay: Odor description of the prepared compound
# Conditions: odour description printed after the preparation of the compound
row,SMILES,Odor
1,"O=C1CCC=CCCCCCCCCOC1 [A, 1-oxacyclopentadec-6-en-3-one]","Creamy, animalic and musk"
2,"O=C1CCC=CCCCCCCCCCOC1 [B, 1-oxacyclohexadec-6-en-3-one]","Musk, animalic"
3,"CC1=CCCCCCCCCCOCC(=O)CC1 [C, 6-methyl-1-oxacyclohexadec-6-en-3-one]","Strong musk, ergon, powdery, creamy"
4,"O=C1COCC=CCCCCCCCCCOC1 [E, 1,5-dioxacycloheptadec-15-en-3-one]","powdery, musky"

# From patent US20250049677A1, “Oxa-Macrocyclic Musk as Fragrance Compounds” (Symrise AG, priority 2021, published 2025)
